Where “and” joins values, the source holds several entries; their conditions need not be identical. Identical values can stand only once. The whole screen tested about 580,000 compounds, of which about 6,100 (1.1%) were called active. The inconclusive results got no clear call from the source; some entries with a clear call stand among them for comparison. Calls come from the whole dose curve; as a rule, active = well fitted inhibition curve with a large enough effect; inconclusive = small, poorly fitted or top-dose-only effect, or another doubt; inactive = no such curve, though single readings can be large or run the other way. Where the call is inconclusive, the potency comes from a doubtful curve fit. More than one record can exist for a structure, and the calls need not agree.
Target: Polyunsaturated fatty acid lipoxygenase ALOX12 (Homo sapiens) (UniProt P18054)
Experiment: Primary qHTS assay for inhibitors of human arachidonate 12S-lipoxygenase (ALOX12): Round 2
Conditions: purified 12hLO, xylenol orange hydroperoxide absorbance; activity change, negative = inhibition: at 108 µM (top of the series)
Method in brief: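 Purified human 12hLO at 150 nM in 25 mM Hepes, 0.01% Triton X-100, pH 7.0, preincubated 15 min at room temperature with compound. Reaction started with 40 uM arachidonic acid, 30 min at room temperature. Hydroperoxide measured by Fe-xylenol orange, 573/405 nm absorbance ratio.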
% is set by controls: 0 for no effect and ±100 for the full control effect; potency is the fitted concentration of half-maximal effect.

Sequences of proteins named here, by UniProt entry; tags and fusion partners are left off.
UniProt P18054, whole entry, looked up: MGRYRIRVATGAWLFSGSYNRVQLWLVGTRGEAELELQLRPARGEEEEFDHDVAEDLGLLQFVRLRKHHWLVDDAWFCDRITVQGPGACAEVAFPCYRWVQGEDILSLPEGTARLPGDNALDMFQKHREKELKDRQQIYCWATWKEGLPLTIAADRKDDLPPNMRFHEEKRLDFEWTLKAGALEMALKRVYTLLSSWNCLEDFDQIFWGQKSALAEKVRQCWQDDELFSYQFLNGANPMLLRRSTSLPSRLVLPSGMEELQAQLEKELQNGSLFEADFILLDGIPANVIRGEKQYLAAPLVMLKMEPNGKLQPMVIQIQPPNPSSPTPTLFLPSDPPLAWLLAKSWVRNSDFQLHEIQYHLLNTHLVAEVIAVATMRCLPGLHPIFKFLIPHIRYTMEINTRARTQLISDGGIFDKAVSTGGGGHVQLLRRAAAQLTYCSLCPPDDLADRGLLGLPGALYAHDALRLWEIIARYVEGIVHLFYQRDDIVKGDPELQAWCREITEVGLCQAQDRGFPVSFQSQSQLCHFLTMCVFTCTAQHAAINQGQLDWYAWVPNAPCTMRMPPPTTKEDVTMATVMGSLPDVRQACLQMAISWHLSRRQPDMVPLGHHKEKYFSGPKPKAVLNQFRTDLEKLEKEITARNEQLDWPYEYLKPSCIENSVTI

SMILES | activity change, negative = inhibition | Potency
CCOC(=O)c1cc(C)sc1/N=C/C1C(=O)NC(=S)NC1=O | inactive: -10.3% | 
C[C@](O)(CS(=O)(=O)c1ccc(F)cc1)C(=O)Nc1ccc(C#N)c(C(F)(F)F)c1 |  | inconclusive: 48.5 µM [inhibitor, single point]
C[C@H]1CC[C@@]2(C)[C@@H](CC[C@@H]3[C@@H]2CC[C@]2(C)[C@@H](O)CC[C@@H]32)C1 | inactive: 9.47% | 
O=C(CNC(=O)OCc1ccccc1)Nc1ccc(Br)cc1C(=O)c1ccccc1 |  | inconclusive: 63.1 µM [inhibitor, partial curve, poor fit]
COc1cc2c(cc1Oc1cccc(N(C)C)c1)NC(=O)C21CCN(Cc2cccc(O)c2)CC1 |  | inconclusive: 50.1 µM [inhibitor, partial curve, poor fit]
O=[N+]([O-])/C=C\c1ccc2c(c1)OCO2 |  | active: 11.2 µM
Nc1ccc(Cl)cc1C(=O)c1ccccc1F |  | inconclusive: 44.7 µM [inhibitor, partial curve, poor fit]
O=C(O)CP(=O)(O)c1ccc(Cl)cc1 |  | inconclusive: 8.91 µM [inhibitor, partial curve]
COc1ccc(CC(=O)N2CCN(C)CC2)cc1 | inactive: 7.12% | 
CCN1CCN(C(=O)COc2ccc(S(=O)(=O)N3CCOCC3)cc2Cl)CC1 | inconclusive: -33.6% [inhibitor] | 
CCOP(=O)(OCC)C1(C(=O)O)CCCC1 |  | inconclusive: 35.5 µM [inhibitor, single point]
O=C(CCN1CCOCC1)Nc1ccc(Br)cc1C(=O)c1ccccc1 |  | inconclusive: 39.8 µM [inhibitor, single point]
COc1ccc(-n2nnnc2C(c2cccs2)N2CCC(n3c(=O)[nH]c4ccccc43)CC2)cc1 (stereo not drawn) | inactive: -34.2% | 
COC(=O)C1=C(c2ccc(OCc3ccccc3)cc2)C[C@@H]2CC[C@H]1N2C(=O)NCc1ccc(N(C)C)cc1 | inactive: 20.7% | 
CC(=O)c1c(C)n(C2CCCCC2)c2ccc(O)cc12 |  | inconclusive: 126 µM [inhibitor, single point]
Cn1nc(-c2cccs2)cc1[C@H]1CN2CC[C@H]1C[C@@H]2COC(=O)Nc1cccc(C(F)(F)F)c1 |  | inconclusive: 79.4 µM [inhibitor, partial curve, poor fit]
O=C(CNC1CCCCC1)N1CCC2(CC1)OCCO2 |  | inconclusive: 0.562 µM [inhibitor, full curve, poor fit]
CSc1ccc(CN2CCN(c3ccccc3C)CC2)cc1 |  | inconclusive: 3.55 µM [inhibitor, full curve]
CC[C@@H]1c2ccccc2[C@@H]2CC[C@H]1N2c1ccccc1 |  | inconclusive: 39.8 µM [inhibitor, partial curve, poor fit]
C[N+]1(C)C2CCC1CC(OC(=O)C(CO)c1ccccc1)C2 (stereo not drawn) |  | inconclusive: 39.8 µM [inhibitor, partial curve, poor fit] and inconclusive: 126 µM [inhibitor, partial curve, poor fit]
CSCC(=O)Nc1ccc(=O)n2c1[C@@H]1C[C@@H](CN(C(=O)c3ccc(F)cc3)C1)C2 |  | inconclusive: 63.1 µM [inhibitor, partial curve, poor fit]

SMILES | activity change, negative = inhibition | Potency
C=C1C(O)(c2ccccc2)C2CC[N+]1(C)CC2 (stereo not drawn) |  | inconclusive: 28.2 µM [inhibitor, partial curve, poor fit]
COc1ccc(CCNCc2ccncc2)cc1OC | inactive: 18.1% | 
C[n+]1c(-c2ccccc2)c2cc(N)ccc2c2ccc(N)cc21 |  | inconclusive: 35.5 µM [inhibitor, partial curve, poor fit]
C=CCn1c(O)c(C(C)=Nc2ccc3c(c2)CCC3)c(=O)[nH]c1=O |  | inconclusive: 28.2 µM [inhibitor, partial curve, poor fit]
CCC(=NC1CCN(Cc2ccccc2)CC1)c1c(O)[nH]c(=O)[nH]c1=O |  | inconclusive: 35.5 µM [inhibitor, partial curve, poor fit]
O=c1c2ccccc2[se]n1-c1ccccc1 |  | inconclusive: 0.316 µM [inhibitor, full curve, poor fit]
CCCCN1C(=O)NC(=O)C2(Cc3c(nc4ccccn4c3=O)N3CCc4ccccc4C32)C1=O (stereo not drawn) |  | inconclusive: 0.501 µM [inhibitor, full curve, poor fit]
CCN(CC)c1nc2c(C)cccn2c(=O)c1C=C1C(=O)NC(=O)NC1=O |  | inconclusive: 35.5 µM [inhibitor, partial curve, poor fit]
CC(C)n1c(=O)c(C=Nc2ccc(Br)cc2)c(O)n(Cc2ccco2)c1=O |  | inconclusive: 39.8 µM [inhibitor, partial curve, poor fit]
ClC1=CC[C@@H]2CN(CCN3CCOCC3)C[C@@H]2C1 |  | inconclusive: 7.08 µM [inhibitor, full curve]
CN(C)S(=O)(=O)c1cc(NC(=O)COC(=O)Cc2ccccc2)ccc1Cl | inactive: 17.2% | 
CCc1nnc(NS(=O)(=O)c2ccc(N=Cc3c(O)n(-c4ccc(Cl)cc4)c(=O)[nH]c3=O)cc2)s1 |  | inconclusive: 5.62 µM [inhibitor, partial curve, poor fit]
C/C(=C\c1ccc2c(c1)OCO2)[N+](=O)[O-] |  | active: 14.1 µM
O=C(O)c1ccccc1N=Nc1c(O)[nH]c(=O)[nH]c1=O |  | inconclusive: 89.1 µM [inhibitor, partial curve, poor fit]
COC(=O)C1=C(c2ccccc2)C[C@@H]2CC[C@H]1N2C(=O)NC(C)C |  | inconclusive: 35.5 µM [inhibitor, single point]
c1ccc2c(c1)Nc1ccccc1S2 |  | active: 35.5 µM and active: 657 nM and active: 114 nM
O=C1Nc2ccccc2/C1=C/c1nc2ccccc2c(=O)n1-c1ccc(O)cc1 | inactive: -5.23% | 
COc1ccccc1CNC(=O)[C@H]1CN2CCC1C[C@@H]2Cn1cc(CN(C)Cc2ccccc2)nn1 (stereo partly drawn) | inactive: 27.7% | 
COC(=O)C1=C(c2ccc(-c3ccccc3)c(F)c2)C[C@@H]2CC[C@H]1N2C(=O)NC1CCCCC1 |  | inconclusive: 79.4 µM [inhibitor, single point]
Fc1ccc(Cn2nnnc2C(c2ccc(Cl)cc2)N2CC=C(c3ccc(F)cc3)CC2)cc1 (stereo not drawn) |  | inconclusive: 35.5 µM [inhibitor, partial curve]
CCOc1cc(C2NCc3ccccc3-n3cccc32)ccc1O (stereo not drawn) | inactive: 0% | 

SMILES | activity change, negative = inhibition | Potency
O=C1NC(=O)C(=CN2CCc3ccccc32)C(=O)N1 | inactive: -2.86% | 
Cc1ccc(C2SCC(=O)Nc3c2c(C)nn3-c2ccccc2)cc1 (stereo not drawn) |  | inconclusive: 28.2 µM [inhibitor, partial curve, poor fit]
CNc1ccc2nc3ccccc3[n+](C)c2c1 | inactive: 56.1% | 
CCN1CCN(Cc2cc(OC)c(OC)cc2[N+](=O)[O-])CC1 |  | inconclusive: 8.91 µM [inhibitor, full curve]
O=C1NC(=O)N(c2ccc3c(c2)OCO3)C(=O)/C1=C\c1ccc(N2CCCCC2)o1 |  | inconclusive: 15.8 µM [inhibitor, partial curve]
COc1ccc(CCNCc2cccc(F)c2)cc1 |  | inconclusive: 0.251 µM [inhibitor, full curve]
N#CC(C#N)=Cc1ccc(O)c(O)c1 |  | active: 25.1 µM and inconclusive: 5.62 µM [inhibitor, full curve, poor fit]
COC(=O)C1=C(c2ccc(S(C)(=O)=O)cc2)C[C@@H]2CC[C@H]1N2C(=O)N1CCC(O)CC1 |  | inconclusive: 100 µM [inhibitor, single point]
Cc1nc2cc(F)ccc2n1C1CCN(Cc2nnnn2CCc2ccccc2)CC1 |  | inconclusive: 31.6 µM [inhibitor, full curve, poor fit]
O=C1NC(=O)C(=Cc2ccc(-c3ccc(S(=O)(=O)N4CCOCC4)cc3)o2)C(=O)N1 | inactive: 0% | 
C#C[C@H]1CN2CC[C@H]1C[C@@H]2CNC(=O)Nc1cc(OC)cc(OC)c1 |  | inconclusive: 12.6 µM [inhibitor, full curve, poor fit]
COc1cccc(CN2CC[C@@H]3CN(S(C)(=O)=O)[C@@H]3C2)n1 | inactive: 13.3% | 
COC(=O)[C@@H]1[C@@H](CO)[C@@H]2Cn3c(cccc3=O)[C@H]1N2S(=O)(=O)c1cccc(C)c1 |  | inconclusive: 0.282 µM [inhibitor, single point]
O=C1CSC(c2ccc(Cl)cc2)c2cn[nH]c2N1 (stereo not drawn) |  | inconclusive: 50.1 µM [inhibitor, partial curve, poor fit]
COc1ccc(CN2CCN(C(=O)COc3ccc4ccccc4c3)CC2)c(OC)c1 |  | inconclusive: 0.316 µM [inhibitor, full curve, poor fit]
Cc1cc(C)cc(N2C(=O)NC(=O)/C(=C/c3cccn3-c3ccc(Cl)cc3)C2=O)c1 | inactive: -13.6% | 
N/C(=N\N=C\c1ccco1)N[N+](=O)[O-] |  | inconclusive: 5.01 µM [inhibitor, full curve, poor fit]
c1cc2c(cc1-c1ccc3c(c1)OCO3)CNCc1cnnn1-2 |  | inconclusive: 0.398 µM [inhibitor, full curve, poor fit]
C[C@@H]1O[C@@H](O[C@@H]2C=C3CC[C@@H]4[C@@H](CC[C@]5(C)[C@H](c6ccc(=O)oc6)CC[C@@]45O)[C@@]3(C)CC2)[C@H](O)[C@H](O)[C@H]1O | inactive: -2.65% [at 57.4 µM] | 
CCNC(=O)NC(=O)C(C)OC(=O)c1c(C)nn(Cc2ccccc2Cl)c1Cl (stereo not drawn) |  | inconclusive: 112 µM [inhibitor, partial curve, poor fit]
CC(C)C(Br)C(=O)NC(N)=O (stereo not drawn) |  | inconclusive: 70.8 µM [inhibitor, partial curve, poor fit]

Reference: PubChem BioAssay AID1671190 (National Center for Advancing Translational Sciences (NCATS), 2021)
